# Paper PMC11649929
# The chains behind the UniProt entries cited, without tags or fusion partners. Where a name states a change or a piece, a line headed by the entry shows the natural chain unless it says otherwise.
# UniProt P53994: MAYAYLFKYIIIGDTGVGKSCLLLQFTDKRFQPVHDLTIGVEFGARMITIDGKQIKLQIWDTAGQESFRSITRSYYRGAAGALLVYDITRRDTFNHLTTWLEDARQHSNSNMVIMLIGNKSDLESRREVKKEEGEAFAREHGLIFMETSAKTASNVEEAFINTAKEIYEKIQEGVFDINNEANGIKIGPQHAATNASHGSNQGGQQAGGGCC
# UniProt Q8VCR2: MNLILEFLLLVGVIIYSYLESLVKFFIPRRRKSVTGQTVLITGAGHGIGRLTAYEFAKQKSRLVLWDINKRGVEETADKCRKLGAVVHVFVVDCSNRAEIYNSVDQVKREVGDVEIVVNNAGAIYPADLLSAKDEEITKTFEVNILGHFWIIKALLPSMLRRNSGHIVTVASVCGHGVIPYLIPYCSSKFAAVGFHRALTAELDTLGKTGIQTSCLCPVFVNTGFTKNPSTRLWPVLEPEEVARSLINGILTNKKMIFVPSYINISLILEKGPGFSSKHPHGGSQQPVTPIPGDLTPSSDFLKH
# Target: MYC-BirA*-Rab2A (Mouse) (mouse) (UniProt P53994)
# Assay: proximity labelling; HEK293T cells transfected with BirA*-Rab2A and HSD17B13 plasmids, NeutrAvidin beads pulldown, Western blotting
substance,measurement,value
HSD17B13 expressed from a plasmid in HEK293T cells (tag not told) (from UniProt Q8VCR2),binding,binds

# No constants are given. Whether binding was seen depends on the method and setting. Binding seen in cells or lysates may run through a third protein. A yes stands for co-enrichment or nearness to the bait. Other partners may have been found.
